The values below come from PMC10613311.

The chains behind the UniProt entries cited, without tags or fusion partners.
UniProt Q08874: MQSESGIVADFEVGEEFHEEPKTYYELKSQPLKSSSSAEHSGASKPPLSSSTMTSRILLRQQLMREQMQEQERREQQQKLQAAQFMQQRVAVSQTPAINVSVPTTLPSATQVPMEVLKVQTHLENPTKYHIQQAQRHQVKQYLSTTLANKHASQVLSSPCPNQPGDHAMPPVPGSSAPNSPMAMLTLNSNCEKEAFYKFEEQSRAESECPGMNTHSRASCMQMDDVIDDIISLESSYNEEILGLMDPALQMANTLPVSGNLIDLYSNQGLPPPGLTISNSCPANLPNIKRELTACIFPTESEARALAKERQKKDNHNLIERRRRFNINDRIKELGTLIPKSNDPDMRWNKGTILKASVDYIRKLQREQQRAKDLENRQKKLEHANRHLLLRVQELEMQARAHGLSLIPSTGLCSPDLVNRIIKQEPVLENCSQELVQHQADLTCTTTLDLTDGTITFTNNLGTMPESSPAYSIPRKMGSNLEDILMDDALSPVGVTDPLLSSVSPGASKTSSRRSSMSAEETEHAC

No constants are given. Whether binding was seen depends on the method and setting. In cells and extracts the contact can be indirect. Some entries that bind do so weakly or less than the wild type.

Experiment [1] addresses microphthalmia-associated transcription factor (mouse (endogenous in B16F10)) (UniProt Q08874). Put plainly: co-IP; 700 ug of proteins from nuclear and cytosolic extracts after cyto-nuclear fractionation; 6 ug of specific antibodies with Dynabeads Protein G; immunoblot; nuclear enrichment of pigmented B16F10 WT cells. Background: In western blotting, separated proteins are transferred to a membrane and probed.

Experiment [2] shares this target. Put plainly: proximity ligation; in situ PLA (Duolink In Situ Red Mouse/Rabbit kit) on fixed, permeabilised B16F10 WT and TG2 KO cells, with or without pigmentation induction; anti-TG2 (rabbit) and anti-MITF (mouse); confocal imaging, dots per cell.

B1: Transglutaminase Type-2 (enzyme, UniProt P21981 1-686)
chain: MAEELLLERCDLEIQANGRDHHTADLCQEKLVLRRGQRFRLTLYFEGRGYEASVDSLTFGAVTGPDPSEEAGTKARFSLSDNVEEGSWSASVLDQQDNVLSLQLCTPANAPIGLYRLSLEASTGYQGSSFVLGHFILLYNAWCPADDVYLDSEEERREYVLTQQGFIYQGSVKFIKSVPWNFGQFEDGILDTCLMLLDMNPKFLKNRSRDCSRRSSPIYVGRVVSAMVNCNDDQGVLLGRWDNNYGDGISPMAWIGSVDILRRWKEHGCQQVKYGQCWVFAAVACTVLRCLGIPTRVVTNYNSAHDQNSNLLIEYFRNEFGELESNKSEMIWNFHCWVESWMTRPDLQPGYEGWQAIDPTPQEKSEGTYCCGPVSVRAIKEGDLSTKYDAPFVFAEVNADVVDWIRQEDGSVLKSINRSLVVGQKISTKSVGRDDREDITHTYKYPEGSPEEREVFTKANHLNKLAEKEETGVAMRIRVGDSMSMGNDFDVFAHIGNDTSETRECRLLLCARTVSYNGVLGPECGTEDINLTLDPYSENSIPLRILYEKYSGCLTESNLIKVRGLLIEPAANSYLLAERDLYLENPEIKIRVLGEPKQNRKLVAEVSLKNPLSDPLYDCIFTVEGAGLTKEQKSVEVSDPVPAGDLVKARVDLFPTDIGLHKLVVNFQCDKLKSVKGYRNVIIGPA
Take B1: the binding result in experiment [1] and in experiment [2] was “binds” each time.
